Data source: PubChem BioAssay AID1508597 (Cure First, 2020)
Aim: 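Knock-downs altering ovarian cancer cell survival with or without PARP inhibitor rucaparib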 (primary screen). Cell system: human ovarian carcinoma lines grown from tumours: OCI-P5x (papillary serous) and OCI-C5x (clear cell). Reagent: siRNA pool against human genes, 1.25 pmol siRNA per well. Timing: 72 h or 96 h, depending on the cell culture. Treatment: rucaparib 20 µM (about IC30) or vehicle, present until read-out. Rucaparib or vehicle: Vehicle. Cell line: OCI-P5x (serous). Detection: 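ATP luminescence measured at 72 or 96 h according to the culture, then normalised and expressed as percent viability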. Direction: viability, normalised: higher = more viable cells remaining. Call rule: 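a well counts as a hit if its normalised viability is under 80 percent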. Calls: active = viability under 80%; inactive = viability 80% or more.
This is an unselected part of the about 2,100 reagents, under one of the conditions tested. 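Calls flag viability under 80% in either arm, not effects specific to rucaparib; the reference for percent is not stated.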 A reagent listed more than once was tested more than once; the source does not tell the runs apart. Not stated in the record: the 100% reference.

| target gene | technical replicate | viability, normalised (%) | Call |
| --- | --- | --- | --- |
| UNC93B1 | 1 | 65 | active |
| UNC93B1 | 2 | 64.6 | active |
| UNC93B1 | 3 | 83.7 | inactive |
| MED15 | 1 | 78.5 | active |
| MED15 | 2 | 60.9 | active |
| MED15 | 3 | 88 | inactive |
| SMPD3 | 1 | 68.8 | active |
| SMPD3 | 2 | 74.4 | active |
| SMPD3 | 3 | 35.9 | active |
| PYGO1 | 1 | 46.6 | active |
| PYGO1 | 2 | 46.8 | active |
| PYGO1 | 3 | 51.9 | active |
| ETNK2 | 1 | 76.2 | active |
| ETNK2 | 2 | 66.8 | active |
| ETNK2 | 3 | 69.6 | active |
| AXL | 1 | 93.1 | inactive |
| AXL | 2 | 68.6 | active |
| AXL | 3 | 63.2 | active |
| CAV2 | 1 | 68.2 | active |
| CAV2 | 2 | 68.9 | active |
| CAV2 | 3 | 97.8 | inactive |
| RAD1 | 1 | 60 | active |
| RAD1 | 2 | 63.9 | active |
| RAD1 | 3 | 56.8 | active |
| PCDHB14 | 1 | 33.5 | active |
| PCDHB14 | 2 | 34.4 | active |
| PCDHB14 | 3 | 50.7 | active |
| ERBB4 | 1 | 66.7 | active |
| ERBB4 | 2 | 66.2 | active |
| ERBB4 | 3 | 62.2 | active |
| RBM10 | 1 | 53.1 | active |
| RBM10 | 2 | 60.2 | active |
| RBM10 | 3 | 96.9 | inactive |
| ALK | 1 | 91 | inactive |
| ALK | 2 | 90.6 | inactive |
| ALK | 3 | 82.8 | inactive |
| PRKCZ | 1 | 62.5 | active |
| PRKCZ | 2 | 61.4 | active |
| PRKCZ | 3 | 87.2 | inactive |
| PDGFRA | 1 | 137 | inactive |
| PDGFRA | 2 | 139 | inactive |
| PDGFRA | 3 | 119 | inactive |
| GRK3 | 1 | 104 | inactive |
| GRK3 | 1 | 90.9 | inactive |
| GRK3 | 2 | 77.8 | active |
| GRK3 | 2 | 92.3 | inactive |
| GRK3 | 3 | 81.3 | inactive |
| GRK3 | 3 | 95.1 | inactive |
| PIM2 | 1 | 80.1 | inactive |
| PIM2 | 2 | 63.6 | active |
| PIM2 | 3 | 61.8 | active |
| SFMBT2 | 1 | 51.5 | active |
| SFMBT2 | 2 | 61.2 | active |
| SFMBT2 | 3 | 142 | inactive |
| ZSCAN20 | 1 | 64 | active |
| ZSCAN20 | 2 | 90.4 | inactive |
| ZSCAN20 | 3 | 64.2 | active |

In a second layout: entries from further up
PYGO1, technical replicate 3
- viability, normalised (%): 51.9
- Call: active

ETNK2, technical replicate 1
- viability, normalised (%): 76.2
- Call: active

ETNK2, technical replicate 2
- viability, normalised (%): 66.8
- Call: active

ETNK2, technical replicate 3
- viability, normalised (%): 69.6
- Call: active

AXL, technical replicate 1
- viability, normalised (%): 93.1
- Call: inactive

AXL, technical replicate 2
- viability, normalised (%): 68.6
- Call: active

AXL, technical replicate 3
- viability, normalised (%): 63.2
- Call: active
